Values from PubChem BioAssay AID1259254 (NCATS, 2017).
Shown is one part, drawn at random, of about 59,000 deposited reagents. About 1,550 of them (2.6%) were called active. 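G2 share is only a proxy for re-replication; each gene was hit by three separate siRNAs, and active genes were retested.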 The raw values are shown without normalisation. Entries without a mark were called inactive. The numbers tell different reagents against one gene apart. Not stated in the record: the amount of reagent.

- Purpose: 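Gene knock-downs that lead to re-replication, shown by excess G2 DNA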 (primary screen)
- Cells: human HCT116 colorectal cancer cells
- Knock-down reagent: single siRNA against human genes
- Duration: 3 days
- Measurement: 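Imaged Hoechst DNA stain sorts each cell into a cycle phase by DNA amount; per plate, G2 fraction set to 0% for non-targeting and 100% for GMNN siRNA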
- Scale: G2 robust z-score and G2 cells, % of GMNN control: higher = more G2 cells, more excess DNA replication; raw share of cells in G2: higher = larger share of cells with G2 DNA content
- Rule for the call: 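Active siRNAs have a G2 robust z of 5 or more median absolute deviations over the median, which in these data means about 38% or higher of GMNN control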

The opening 8 records, ahead of the listing:
target gene | reagent no. | G2 robust z-score | G2 cells, % of GMNN control | raw share of cells in G2 (%)
NBPF15 (NBPF member 15) | 1 | -0.0305 | 2.75 | 4.11
NBPF15 (NBPF member 15) | 2 | 2.39 | 19.8 | 9.28
NBPF15 (NBPF member 15) | 3 | -0.809 | -2.72 | 2.65
LOC729291 | 1 | -0.0631 | 2.52 | 4.09
LOC729291 | 2 | -0.803 | -2.68 | 2.9
LOC729291 | 3 | 0.058 | 3.38 | 4.41
YWHAEP5 | 1 | 0.127 | 3.86 | 5.11
YWHAEP5 | 2 | -1.04 | -4.35 | 1.77

The list itself, from the first entry:
target gene | reagent no. | G2 robust z-score | G2 cells, % of GMNN control | raw share of cells in G2 (%)
NBPF15 (NBPF member 15) | 1 | -0.0305 | 2.75 | 4.11
NBPF15 (NBPF member 15) | 2 | 2.39 | 19.8 | 9.28
NBPF15 (NBPF member 15) | 3 | -0.809 | -2.72 | 2.65
LOC729291 | 1 | -0.0631 | 2.52 | 4.09
LOC729291 | 2 | -0.803 | -2.68 | 2.9
LOC729291 | 3 | 0.058 | 3.38 | 4.41
YWHAEP5 | 1 | 0.127 | 3.86 | 5.11
YWHAEP5 | 2 | -1.04 | -4.35 | 1.77
YWHAEP5 | 3 | 0.544 | 6.8 | 5.43
LINC01565 (long independently transcribed non-coding RNA 1565) | 1 | -0.583 | -1.13 | 3.99
LINC01565 (long independently transcribed non-coding RNA 1565) | 2 | 0.571 | 6.99 | 6.97
LINC01565 (long independently transcribed non-coding RNA 1565) | 3 | 0.474 | 6.3 | 5.5
THBD (thrombomodulin) | 1 | -0.0944 | 2.3 | 5.34
THBD (thrombomodulin) | 2 | -0.265 | 1.1 | 4.32
THBD (thrombomodulin) | 3 | 0.821 | 8.74 | 8.62
SSNA1 (SS nuclear autoantigen 1) | 1 | -0.669 | -1.74 | 4.36
SSNA1 (SS nuclear autoantigen 1) | 2 | 0.536 | 6.74 | 6.57
SSNA1 (SS nuclear autoantigen 1) | 3 | -1.03 | -4.25 | 1.85
PPA1 (inorganic pyrophosphatase 1) | 1 | -1.44 | -7.17 | 2.46
PPA1 (inorganic pyrophosphatase 1) | 2 | 1.47 | 13.3 | 8.32
PPA1 (inorganic pyrophosphatase 1) | 3 | 2.26 | 18.9 | 9.18
PLXNB2 (plexin B2) | 1 | -0.465 | -0.306 | 5.49
PLXNB2 (plexin B2) | 2 | -0.437 | -0.107 | 5.15
PLXNB2 (plexin B2) | 3 | 0.0772 | 3.51 | 4.81
CRMP1 (collapsin response mediator protein 1) | 1 | 0.832 | 8.82 | 8.11
CRMP1 (collapsin response mediator protein 1) | 2 | -0.777 | -2.5 | 4.08
CRMP1 (collapsin response mediator protein 1) | 3 | 0.541 | 6.78 | 6.43
ZC4H2 (zinc finger C4H2-type containing) | 1 | 0.112 | 3.76 | 5.83
ZC4H2 (zinc finger C4H2-type containing) | 2 | -0.349 | 0.514 | 4.71
ZC4H2 (zinc finger C4H2-type containing) | 3 | 0.0506 | 3.32 | 4.08
CLDN8 (claudin 8) | 1 | -0.782 | -2.54 | 2.68
CLDN8 (claudin 8) | 2 | -1.02 | -4.24 | 4.1
CLDN8 (claudin 8) | 3 | 2.12 | 17.9 | 10.8
SLFN11 (schlafen family member 11) | 1 | -0.919 | -3.5 | 2.6
SLFN11 (schlafen family member 11) | 2 | 1.87 | 16.1 | 8.05
SLFN11 (schlafen family member 11) | 3 | -0.121 | 2.12 | 3.6
FRAS1 (Fraser extracellular matrix complex subunit 1) | 1 | 2.51 | 20.6 | 13
FRAS1 (Fraser extracellular matrix complex subunit 1) | 2 | -0.82 | -2.8 | 3.08
FRAS1 (Fraser extracellular matrix complex subunit 1) | 3 | -0.353 | 0.483 | 2.51
RHOT1 (ras homolog family member T1) | 1 | 2.54 | 20.8 | 15.6
RHOT1 (ras homolog family member T1) | 2 | -1.11 | -4.83 | 2.71
RHOT1 (ras homolog family member T1) | 3 | 2.44 | 20.1 | 12.7
DEK (DEK proto-oncogene) | 1 | -0.985 | -3.96 | 2.79
DEK (DEK proto-oncogene) | 2 | -0.607 | -1.3 | 4.05
DEK (DEK proto-oncogene) | 3 | -1.1 | -4.78 | 3.58
ZNF708 (zinc finger protein 708) | 1 | -1.13 | -4.97 | 1.87
ZNF708 (zinc finger protein 708) | 2 | -0.192 | 1.62 | 6.71
ZNF708 (zinc finger protein 708) | 3 | -0.227 | 1.37 | 3.91
SLC1A4 | 1 | 3.94 | 30.7 | 16
SLC1A4 | 2 | -1.02 | -4.22 | 3.1
SLC1A4 | 3 | -0.934 | -3.6 | 2.76
EXOG (exo/endonuclease G) | 1 | -0.378 | 0.308 | 3.3
EXOG (exo/endonuclease G) | 2 | -0.459 | -0.264 | 4.64
EXOG (exo/endonuclease G) | 3 | 1.89 | 16.3 | 11.4
SIRT4 (sirtuin 4) | 1 | 0.386 | 5.68 | 8.65
SIRT4 (sirtuin 4) | 2 | -0.377 | 0.315 | 4.26
SIRT4 (sirtuin 4) | 3 | -0.0454 | 2.65 | 4.77
ADGRG5 (adhesion G protein-coupled receptor G5) | 1 | 3.84 | 29.9 | 16.6
ADGRG5 (adhesion G protein-coupled receptor G5) | 2 | -0.506 | -0.591 | 4.31
ADGRG5 (adhesion G protein-coupled receptor G5) | 3 | -0.371 | 0.357 | 3.38
MSGN1 (mesogenin 1) | 1 | -0.397 | 0.178 | 3.34
MSGN1 (mesogenin 1) | 2 | -0.434 | -0.0872 | 4.15
MSGN1 (mesogenin 1) | 3 | -0.13 | 2.05 | 4.69
MAF (MAF bZIP transcription factor) | 1 | -0.588 | -1.17 | 4.91
MAF (MAF bZIP transcription factor) | 2 | -1.16 | -5.21 | 1.48
MAF (MAF bZIP transcription factor) | 3 | -0.979 | -3.92 | 3.92
CCDC92 (coiled-coil domain containing 92) | 1 | -0.872 | -3.17 | 1.51
CCDC92 (coiled-coil domain containing 92) | 2 | 0.428 | 5.98 | 6.93
CCDC92 (coiled-coil domain containing 92) | 3 | -0.409 | 0.0917 | 4.34
